Measurements taken from patent US20020137750A1, “Amidine derivatives which are inhibitors of nitric oxide synthase” (priority 1999, published 2002).
Structures can show the parent of a compound that is named as a salt. Some of these results come from one statement about several compounds together. For some of these results: At least one compound was matched to its structure with a doubt left.

Experiments:
[1] = molecular target: T1, endothelial nitric oxide synthase (Homo sapiens, UniProt P29474); test: Screen for endothelial nitric oxide synthase inhibiting activity; type: biochemical; conditions: neuronal versus endothelial NOS
T1 construct: The enzyme is isolated from human umbilical vein endothelial cells (HUVECs); host or cells: HUVECs

[2] = molecular target: T2, neuronal nitric oxide synthase (Rattus norvegicus, UniProt P29476); test: Screen for neuronal nitric oxide synthase inhibiting activity (3H-L-arginine to 3H-L-citrulline); type: biochemical; conditions: neuronal isoform; rat or human screen not specified; read-out: IC50 for inhibition of neuronal nitric oxide synthase
T2 construct: The enzyme is isolated from rat hippocampus or cerebellum; from tissue; host or cells: hippocampus or cerebellum of male Sprague-Dawley rat

| SMILES | selectivity compared to inhibition of the endothelial isoform of the enzyme [1] | IC50 [2] [µM] |
| --- | --- | --- |
| CCC(CC)Oc1ccc(NC(=N)c2cccs2)cc1CNCCN.Cl.Cl.Cl [Example 14, N-[3-{[(2-Aminoethyl)Amino]Methyl}-4-(1-Ethylpropoxy)Phenyl]-2-Thiophenecarboximidamide Trihydrochloride] | good selectivity | < 10 |
| COCCNCc1cccc(NC(=N)c2cccs2)c1.Cl.Cl [Example 26, N-(3-{[(2-Methoxyethyl)Amino]Methyl}Phenyl)-2-Thiophenecarboximidamide Dihydrochloride] | good selectivity | < 10 |
| COCCNCc1cc(NC(=N)c2cccs2)ccc1OC [Example 9, N-(4-Methoxy-3-{[(2-Methoxyethyl)Amino]Methyl}Phenyl-2-Thiophenecarboximidamide Hydrochloride] | good selectivity | < 10 |
| CCC(CC)Oc1ccc(NC(=N)c2cccs2)cc1CNCCN1CCNCC1.Cl.Cl.Cl.Cl [Example 15, N-[4-(1-Ethylpropoxy)-3-({[2-(1-Piperazinyl)Ethyl]Amino}Methyl)Phenyl]-2-Thiophenecarboximidamide Tetrahydrochloride] | good selectivity | < 10 |
| COc1ccc(NC(=N)c2cccs2)cc1CN(CCO)C1CC1 [Example 11, N-(3-{[(Cyclopropyl)(2-Hydroxyethyl)Amino]Methyl}-4-Methoxy)-2-Thiophenecarboximidamide] | good selectivity | < 10 |
| COc1ccc(NC(=N)c2cccs2)cc1CN1CCC[C@@H]1CO [Example 1, N-(3-{[(2R)-2-(Hydroxymethyl)Pyrrolidinyl]methyl}-4-Methoxyphenyl)-2-Thiophenecarboximidamide Dihydrochloride] | good selectivity | < 10 |
| N=C(Nc1cccc(CN(CCO)Cc2ccccc2)c1)c1cccs1 [Example 42, N-(3-([Benzyl-(2-Hydroxyethyl)Amino]Methyl)Phenyl)-2-Thiophenecarboximidamide] | good selectivity | < 10 |
| N=C(Nc1cccc(CN2CCCC(O)C2)c1)c1cccs1 (stereo not shown) [Example 28, N-(3-[3 -Hydroxypiperidinylmethyl]phenyl)-2-Thiophenecarboximidamide Dihydrochloride] | good selectivity | < 10 |
| Cc1c(CN2CCC[C@@H]2CO)cccc1NC(=N)c1cccs1 [Example 36, N-(3-{[(2R)-2-(Hydroxymethyl)Pyrrolidinyl]Methyl}-2-Methylphenyl)-2-Thiophenecarboximidamide Dihydrochloride] | good selectivity | < 10 |
| COc1ccc(NC(=N)c2cccs2)cc1CN1CCC[C@H]1CO [Example 2, N-(3-{[(2S)-2-(Hydroxymethyl)Pyrrolidinyl]methyl}-4-Methoxyphenyl)-2-Thiophenecarboximidamide Dihydrochloride] | good selectivity | < 10 |
| COc1ccc(NC(=N)c2cccs2)cc1C(C)N(C)CCO (stereo not shown) [Example 39, N-(3-{1-[(2-Hydroxyethyl)(Methyl)Amino]Ethyl}-4-Methoxyphenyl)-2-Thionhenecarboximidamide] | good selectivity | < 10 |
| N=C(Nc1cccc(CCN(CCO)Cc2ccccc2)c1)c1cccs1 [Example 41, N-(3-(2-[Benzyl-(2-Hydroxyethyl)Amino]Ethyl)Phenyl)-2-Thiophenecarboximidamide] | good selectivity | < 10 |
| CC(C)Oc1ccc(NC(=N)c2cccs2)cc1CN(C)CCO [Example 17, N-(3-{[(2-Hydroxyethyl)(Methyl)Amino]Methyl}-4-Isopropoxyphenyl)-2-Thiophenecarboximidamide] | good selectivity | < 10 |
| COc1ccc(NC(=N)c2cccs2)cc1CNCCO.Cl.Cl [Example 8, N-(3-{[(2-Hydroxyethyl)Amino]Methyl}-4-Methoxyphenyl)-2-Thiophenecarboximidamide Dihydrochloride] | good selectivity | < 10 |
| CCCC(CO)NCCc1cccc(NC(=N)c2cccs2)c1 (stereo not shown) [Example 43, N-(3-(2-[(1-Hydroxmethyl)Butylamino]Ethyl)Phenyl)-2-Thiophenecarboximidamide] | good selectivity | < 10 |
| COc1ccc(NC(=N)c2cccs2)cc1C1CCCN1CCO (stereo not shown) [Example 40, N-{3-[1-(2-Hydroxyethyl)-2-Pyrrolidinyl]-4-Methoxyphenyl]-2-Thiophenecarboximidamide] | good selectivity | < 10 |
| CC(C)Oc1ccc(NC(=N)c2cccs2)cc1CNCCCCO [Example 18, N-(3-{[(4-Hydroxybutyl)Amino]Methyl}-4-Isopronoxyohenyl)-2-Thiophenecarboximidamide Dihydrochloride] | good selectivity | < 10 |
| CC(C)Oc1ccc(NC(=N)c2cccs2)cc1CNCCN1CCNCC1.Cl.Cl.Cl [Example 19, N-[4-Isopropoxy-3-({[2-(1-Piperazinyl)Ethyl]Amino}Methyl)Phenyl]-2-Thiophenecarboximidamide Trihydrochloride] | good selectivity | < 10 |
| Cc1c(CN(C)CCO)cccc1NC(=N)c1cccs1.Cl.Cl [Example 35, N-(3-{[(2-Hydroxyethyl)(Methyl)Amino]Methyl}-2-Methylphenyl)-2-Thiophenecarboximidamide Dihydrochloride] | good selectivity | < 10 |
| Cc1c(CNCCO)cccc1NC(=N)c1cccs1 [Example 34, N-(3-{[(2-Hydroxyethyl)Amino]Methyl}-2-Methylphenyl)-2-Thiophenecarboximidamide Dihydrochloride] | good selectivity | < 10 |
| COc1ccc(NC(=N)c2cccs2)cc1CN(CCO)CCO.Cl.Cl [Example 10, N-(3-{[Bis(2-Hydroxyethyl)Amino]Methyl}-4-Methoxyphenyl)-2-Thiophenecarboximidamide Dihydrochloride] | good selectivity | < 10 |
| Cl.Cl.N=C(Nc1cccc(CNCCO)c1)c1cccs1 [Example 25, N-(3-{[(2-Hydroxyethyl)Amino]Methyl}Phenyl)-2-Thiophenecarboximidamide Dihydrochloride] | good selectivity | < 10 |
| COc1ccc(NC(=N)c2ccsc2)cc1CN(C)CCO [Example 33, N-(3-{[(2 -Hydroxyethyl)(Methyl)Amino]Methyl}-4-Methoxyphenyl)-3-Thiophenecarboximidamide] | good selectivity | < 10 |
